Results reported in article doi:10.1101/2023.08.29.555105.
Results are given in words; binding and its absence hold for the method and conditions named. In cells and extracts the contact can be indirect. Some binding calls cover weakened binding; strength is not graded here. For some of these results: Tags and fused reporters may be left off the sequences shown.

Tests used:
[1] = target: dsRNA-activated protein kinase R (PKR) (human (endogenous in A549)) (UniProt P19525); assay: co-IP
[2] = target: T1, dsRNA-activated protein kinase R (PKR) (human (endogenous in A549)), P19525; assay: co-IP; details: remark: other sources report otherwise
T1 chain: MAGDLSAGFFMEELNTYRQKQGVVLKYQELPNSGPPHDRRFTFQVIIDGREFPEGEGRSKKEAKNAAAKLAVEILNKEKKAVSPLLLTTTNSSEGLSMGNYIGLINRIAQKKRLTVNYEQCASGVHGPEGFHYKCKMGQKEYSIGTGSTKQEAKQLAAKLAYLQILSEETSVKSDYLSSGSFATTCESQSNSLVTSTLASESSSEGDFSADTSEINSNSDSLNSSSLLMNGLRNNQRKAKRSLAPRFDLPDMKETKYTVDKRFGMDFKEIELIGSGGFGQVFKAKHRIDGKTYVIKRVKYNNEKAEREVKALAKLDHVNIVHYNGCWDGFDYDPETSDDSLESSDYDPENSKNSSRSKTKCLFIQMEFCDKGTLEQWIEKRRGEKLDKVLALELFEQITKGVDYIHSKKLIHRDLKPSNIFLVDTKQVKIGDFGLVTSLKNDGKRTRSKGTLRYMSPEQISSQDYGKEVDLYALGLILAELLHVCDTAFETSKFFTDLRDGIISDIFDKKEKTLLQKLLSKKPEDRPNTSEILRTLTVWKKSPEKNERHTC

B1: ADAR1 p150 (adenosine deaminase acting on RNA 1, IFN-inducible p150 isoform) (protein, UniProt P55265-1 1-1226)
chain: MNPRQGYSLSGYYTHPFQGYEHRQLRYQQPGPGSSPSSFLLKQIEFLKGQLPEAPVIGKQTPSLPPSLPGLRPRFPVLLASSTRGRQVDIRGVPRGVHLRSQGLQRGFQHPSPRGRSLPQRGVDCLSSHFQELSIYQDQEQRILKFLEELGEGKATTAHDLSGKLGTPKKEINRVLYSLAKKGKLQKEAGTPPLWKIAVSTQAWNQHSGVVRPDGHSQGAPNSDPSLEPEDRNSTSVSEDLLEPFIAVSAQAWNQHSGVVRPDSHSQGSPNSDPGLEPEDSNSTSALEDPLEFLDMAEIKEKICDYLFNVSDSSALNLAKNIGLTKARDINAVLIDMERQGDVYRQGTTPPIWHLTDKKRERMQIKRNTNSVPETAPAAIPETKRNAEFLTCNIPTSNASNNMVTTEKVENGQEPVIKLENRQEARPEPARLKPPVHYNGPSKAGYVDFENGQWATDDIPDDLNSIRAAPGEFRAIMEMPSFYSHGLPRCSPYKKLTECQLKNPISGLLEYAQFASQTCEFNMIEQSGPPHEPRFKFQVVINGREFPPAEAGSKKVAKQDAAMKAMTILLEEAKAKDSGKSEESSHYSTEKESEKTAESQTPTPSATSFFSGKSPVTTLLECMHKLGNSCEFRLLSKEGPAHEPKFQYCVAVGAQTFPSVSAPSKKVAKQMAAEEAMKALHGEATNSMASDNQPEGMISESLDNLESMMPNKVRKIGELVRYLNTNPVGGLLEYARSHGFAAEFKLVDQSGPPHEPKFVYQAKVGGRWFPAVCAHSKKQGKQEAADAALRVLIGENEKAERMGFTEVTPVTGASLRRTMLLLSRSPEAQPKTLPLTGSTFHDQIAMLSHRCFNTLTNSFQPSLLGRKILAAIIMKKDSEDMGVVVSLGTGNRCVKGDSLSLKGETVNDCHAEIISRRGFIRFLYSELMKYNSQTAKDSIFEPAKGGEKLQIKKTVSFHLYISTAPCGDGALFDKSCSDRAMESTESRHYPVFENPKQGKLRTKVENGEGTIPVESSDIVPTWDGIRLGERLRTMSCSDKILRWNVLGLQGALLTHFLQPIYLKSVTLGYLFSQGHLTRAICCRVTRDGSAFEDGLRHPFIVNHPKVGRVSIYDSKRQSGKTKETSVNWCLADGYDLEILDGTRGTVDGPRNELSRVSKKNIFLLFKKLCSFRYRRDLLRLSYGEAKKAARDYETAKNYFKKGLKDMGYGNWISKPQEEKNFYLCPV
[1]
  binding: binds

B2: ADAR1 p110 (adenosine deaminase acting on RNA 1, constitutive p110 isoform), P55265-5 1-931 (protein)
chain: MAEIKEKICDYLFNVSDSSALNLAKNIGLTKARDINAVLIDMERQGDVYRQGTTPPIWHLTDKKRERMQIKRNTNSVPETAPAAIPETKRNAEFLTCNIPTSNASNNMVTTEKVENGQEPVIKLENRQEARPEPARLKPPVHYNGPSKAGYVDFENGQWATDDIPDDLNSIRAAPGEFRAIMEMPSFYSHGLPRCSPYKKLTECQLKNPISGLLEYAQFASQTCEFNMIEQSGPPHEPRFKFQVVINGREFPPAEAGSKKVAKQDAAMKAMTILLEEAKAKDSGKSEESSHYSTEKESEKTAESQTPTPSATSFFSGKSPVTTLLECMHKLGNSCEFRLLSKEGPAHEPKFQYCVAVGAQTFPSVSAPSKKVAKQMAAEEAMKALHGEATNSMASDNQPEGMISESLDNLESMMPNKVRKIGELVRYLNTNPVGGLLEYARSHGFAAEFKLVDQSGPPHEPKFVYQAKVGGRWFPAVCAHSKKQGKQEAADAALRVLIGENEKAERMGFTEVTPVTGASLRRTMLLLSRSPEAQPKTLPLTGSTFHDQIAMLSHRCFNTLTNSFQPSLLGRKILAAIIMKKDSEDMGVVVSLGTGNRCVKGDSLSLKGETVNDCHAEIISRRGFIRFLYSELMKYNSQTAKDSIFEPAKGGEKLQIKKTVSFHLYISTAPCGDGALFDKSCSDRAMESTESRHYPVFENPKQGKLRTKVENGEGTIPVESSDIVPTWDGIRLGERLRTMSCSDKILRWNVLGLQGALLTHFLQPIYLKSVTLGYLFSQGHLTRAICCRVTRDGSAFEDGLRHPFIVNHPKVGRVSIYDSKRQSGKTKETSVNWCLADGYDLEILDGTRGTVDGPRNELSRVSKKNIFLLFKKLCSFRYRRDLLRLSYGEAKKAARDYETAKNYFKKGLKDMGYGNWISKPQEEKNFYLCPV
[2]
  binding: binds

B3: HA-tagged human ADAR1 p150, wild type (protein, UniProt P55265-1 1-1226)
chain: MNPRQGYSLSGYYTHPFQGYEHRQLRYQQPGPGSSPSSFLLKQIEFLKGQLPEAPVIGKQTPSLPPSLPGLRPRFPVLLASSTRGRQVDIRGVPRGVHLRSQGLQRGFQHPSPRGRSLPQRGVDCLSSHFQELSIYQDQEQRILKFLEELGEGKATTAHDLSGKLGTPKKEINRVLYSLAKKGKLQKEAGTPPLWKIAVSTQAWNQHSGVVRPDGHSQGAPNSDPSLEPEDRNSTSVSEDLLEPFIAVSAQAWNQHSGVVRPDSHSQGSPNSDPGLEPEDSNSTSALEDPLEFLDMAEIKEKICDYLFNVSDSSALNLAKNIGLTKARDINAVLIDMERQGDVYRQGTTPPIWHLTDKKRERMQIKRNTNSVPETAPAAIPETKRNAEFLTCNIPTSNASNNMVTTEKVENGQEPVIKLENRQEARPEPARLKPPVHYNGPSKAGYVDFENGQWATDDIPDDLNSIRAAPGEFRAIMEMPSFYSHGLPRCSPYKKLTECQLKNPISGLLEYAQFASQTCEFNMIEQSGPPHEPRFKFQVVINGREFPPAEAGSKKVAKQDAAMKAMTILLEEAKAKDSGKSEESSHYSTEKESEKTAESQTPTPSATSFFSGKSPVTTLLECMHKLGNSCEFRLLSKEGPAHEPKFQYCVAVGAQTFPSVSAPSKKVAKQMAAEEAMKALHGEATNSMASDNQPEGMISESLDNLESMMPNKVRKIGELVRYLNTNPVGGLLEYARSHGFAAEFKLVDQSGPPHEPKFVYQAKVGGRWFPAVCAHSKKQGKQEAADAALRVLIGENEKAERMGFTEVTPVTGASLRRTMLLLSRSPEAQPKTLPLTGSTFHDQIAMLSHRCFNTLTNSFQPSLLGRKILAAIIMKKDSEDMGVVVSLGTGNRCVKGDSLSLKGETVNDCHAEIISRRGFIRFLYSELMKYNSQTAKDSIFEPAKGGEKLQIKKTVSFHLYISTAPCGDGALFDKSCSDRAMESTESRHYPVFENPKQGKLRTKVENGEGTIPVESSDIVPTWDGIRLGERLRTMSCSDKILRWNVLGLQGALLTHFLQPIYLKSVTLGYLFSQGHLTRAICCRVTRDGSAFEDGLRHPFIVNHPKVGRVSIYDSKRQSGKTKETSVNWCLADGYDLEILDGTRGTVDGPRNELSRVSKKNIFLLFKKLCSFRYRRDLLRLSYGEAKKAARDYETAKNYFKKGLKDMGYGNWISKPQEEKNFYLCPV
[1]
  binding: binds

B4: HA-tagged human ADAR1 p150 K777E (protein, UniProt P55265-1 1-1226)
chain: MNPRQGYSLSGYYTHPFQGYEHRQLRYQQPGPGSSPSSFLLKQIEFLKGQLPEAPVIGKQTPSLPPSLPGLRPRFPVLLASSTRGRQVDIRGVPRGVHLRSQGLQRGFQHPSPRGRSLPQRGVDCLSSHFQELSIYQDQEQRILKFLEELGEGKATTAHDLSGKLGTPKKEINRVLYSLAKKGKLQKEAGTPPLWKIAVSTQAWNQHSGVVRPDGHSQGAPNSDPSLEPEDRNSTSVSEDLLEPFIAVSAQAWNQHSGVVRPDSHSQGSPNSDPGLEPEDSNSTSALEDPLEFLDMAEIKEKICDYLFNVSDSSALNLAKNIGLTKARDINAVLIDMERQGDVYRQGTTPPIWHLTDKKRERMQIKRNTNSVPETAPAAIPETKRNAEFLTCNIPTSNASNNMVTTEKVENGQEPVIKLENRQEARPEPARLKPPVHYNGPSKAGYVDFENGQWATDDIPDDLNSIRAAPGEFRAIMEMPSFYSHGLPRCSPYKKLTECQLKNPISGLLEYAQFASQTCEFNMIEQSGPPHEPRFKFQVVINGREFPPAEAGSKKVAKQDAAMKAMTILLEEAKAKDSGKSEESSHYSTEKESEKTAESQTPTPSATSFFSGKSPVTTLLECMHKLGNSCEFRLLSKEGPAHEPKFQYCVAVGAQTFPSVSAPSKKVAKQMAAEEAMKALHGEATNSMASDNQPEGMISESLDNLESMMPNKVRKIGELVRYLNTNPVGGLLEYARSHGFAAEFKLVDQSGPPHEPKFVYQAKVGGRWFPAVCAHSEKQGKQEAADAALRVLIGENEKAERMGFTEVTPVTGASLRRTMLLLSRSPEAQPKTLPLTGSTFHDQIAMLSHRCFNTLTNSFQPSLLGRKILAAIIMKKDSEDMGVVVSLGTGNRCVKGDSLSLKGETVNDCHAEIISRRGFIRFLYSELMKYNSQTAKDSIFEPAKGGEKLQIKKTVSFHLYISTAPCGDGALFDKSCSDRAMESTESRHYPVFENPKQGKLRTKVENGEGTIPVESSDIVPTWDGIRLGERLRTMSCSDKILRWNVLGLQGALLTHFLQPIYLKSVTLGYLFSQGHLTRAICCRVTRDGSAFEDGLRHPFIVNHPKVGRVSIYDSKRQSGKTKETSVNWCLADGYDLEILDGTRGTVDGPRNELSRVSKKNIFLLFKKLCSFRYRRDLLRLSYGEAKKAARDYETAKNYFKKGLKDMGYGNWISKPQEEKNFYLCPV
[1]
  binding: no binding
